At least one compound was matched to its structure with a doubt left.
Columns and labels:
[1] = system: Humanthrombozyten; test: Induced aggregation of human platelets in vitro (Method 1, platelet-rich plasma, Born aggregometer); type: cell-based
Source text: Methode 1 - Induzierte Aggregation von Humanthrombozyten in vitro
Gesund erscheinenden männlichen und weiblichen Freiwilligen, die im vorangegangenen Zeitraum von 10 Tagen keine Medikamente eingenommen haben, wird durch vorsichtige Kanülierung der Antekubitalvene Blut entnommen, das sofort mit Natriumzitrat (ad 0,38%) stabilisiert wird. Durch 15minütiges Zentrifugieren bei 140 x g erhält man im Überstand plättchenreiches Plasma (PRP), dessen Thrombozytengehalt im Bereich 2,5 - 3,5·10⁺⁸ /ml (Coulter Counter) liegen soll. Die Plättchenaggregation wird optisch durch Messung der Lichttransmission im Born'schen Aggregometer verfolgt. Das Gesamtvolumen des Testansatzes beträgt 0,25 ml. Die Vorinkubationszeit mit dem Prüfpräparat beträgt 10 min bei 37°C, die Aggregationsinduktion erfolgt sodann mit 2 · 10⁻⁴ mol/l Arachidonsäure oder 1,7 µg/ml Kollagen. Das Prüfpräparat wird an fünf verschiedenen Spendern getestet. Aus den jeweiligen maximalen Aggregationsamplituden werden Dosis-Wirkungskurven erstellt und graphisch die arithmetisch gemittelten ED₅₀ (mol/l)-Werte bestimmt. Die Messungen erfolgen im Zeitraum von 1-6 Stunden nach Blutentnahme.

[2] = system: Humanthrombozyten; test: Cyclo AMP determination in human platelets (Method 3, 3H-adenine labelling); type: cell-based; settings: 5 min 37°C, ohne Wirkstoff 9,0·10⁻¹³
Procedure: Methode 3 - Cyclo AMP-Bestimmung in Humanthrombozyten
Die Methode folgt in allen Einzelheiten der Vorschrift in Nature (London) 292 (1981) 364: Statt Kaninchenthrombozyten wurde jedoch menschliches Thrombozytenkonzentrat mit ³H-Adenin bei 20°C für 90 min inkubiert. Das überschüssige Adenin wird, wie in Nature beschrieben, entfernt, die Wirkstoffe (s. Tab. 2) zugesetzt und erneut 5 min (37°C) inkubiert. Das gebildete ³H-cyclo AMP wird in der bekannten Weise abgetrennt und durch Radioaktivitätsmessung quantifiziert.

CCCCCC(O)C=CC1C(O)CC2N=C(SCCCCC(=O)O)CC21 (centres unmarked) [Tilsuprost]
% Hemmung der Aggregation ([1]; Monosubstanz, 1,9·10^-9 mol/l (I)): 5% | % Hemmung der Aggregation ([1]; Monosubstanz, 3,8·10^-9 mol/l (II)): 19% | Hemmung der Aggregation ED₅₀ (mol/l) (Methode 1) ([1]; human PRP, preincubation 10 min 37°C, induction with 2·10⁻⁴ mol/l Arachidonsäure or 1,7 µg/ml Kollagen, mean of five donors): 8·10⁻⁹ mol/l | cyclo AMP-Spiegel mol/Testansatz ([2]; bei 1·10⁻⁸ mol/l): 9,8·10⁻¹³ (bei 1·10⁻⁸) mol/Testansatz | cyclo AMP-Spiegel mol/Testansatz ([2]; bei 1·10⁻⁹ mol/l): 8,9·10⁻¹³ (bei 1·10⁻⁹) mol/Testansatz
